From paper PMC12170509
These are yes or no findings as the source states them, for the method shown. In cells and extracts the contact can be indirect. Some entries that bind do so weakly or less than the wild type. Tags and fused reporters may be left off the sequences shown.

Chains of the proteins cited; added tags and fusions are not shown.
UniProt P42227: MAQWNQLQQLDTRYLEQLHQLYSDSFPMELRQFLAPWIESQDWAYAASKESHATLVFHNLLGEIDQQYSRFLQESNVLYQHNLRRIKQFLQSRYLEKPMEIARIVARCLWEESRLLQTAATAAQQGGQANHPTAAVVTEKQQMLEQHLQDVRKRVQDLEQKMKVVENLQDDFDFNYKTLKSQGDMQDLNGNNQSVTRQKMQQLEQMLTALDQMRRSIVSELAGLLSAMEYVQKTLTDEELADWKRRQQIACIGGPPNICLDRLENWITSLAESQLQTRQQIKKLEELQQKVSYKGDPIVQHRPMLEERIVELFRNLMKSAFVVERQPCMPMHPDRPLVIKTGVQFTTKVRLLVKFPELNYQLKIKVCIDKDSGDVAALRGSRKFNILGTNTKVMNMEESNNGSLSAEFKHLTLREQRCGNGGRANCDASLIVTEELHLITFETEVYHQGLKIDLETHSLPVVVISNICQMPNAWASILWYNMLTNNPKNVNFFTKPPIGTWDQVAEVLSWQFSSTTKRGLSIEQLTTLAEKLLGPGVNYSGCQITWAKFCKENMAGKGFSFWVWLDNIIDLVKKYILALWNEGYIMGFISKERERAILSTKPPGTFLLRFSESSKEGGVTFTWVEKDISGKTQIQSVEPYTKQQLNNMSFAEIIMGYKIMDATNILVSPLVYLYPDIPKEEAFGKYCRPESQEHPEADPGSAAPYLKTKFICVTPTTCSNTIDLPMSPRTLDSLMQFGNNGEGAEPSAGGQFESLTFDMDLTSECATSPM
UniProt Q04207: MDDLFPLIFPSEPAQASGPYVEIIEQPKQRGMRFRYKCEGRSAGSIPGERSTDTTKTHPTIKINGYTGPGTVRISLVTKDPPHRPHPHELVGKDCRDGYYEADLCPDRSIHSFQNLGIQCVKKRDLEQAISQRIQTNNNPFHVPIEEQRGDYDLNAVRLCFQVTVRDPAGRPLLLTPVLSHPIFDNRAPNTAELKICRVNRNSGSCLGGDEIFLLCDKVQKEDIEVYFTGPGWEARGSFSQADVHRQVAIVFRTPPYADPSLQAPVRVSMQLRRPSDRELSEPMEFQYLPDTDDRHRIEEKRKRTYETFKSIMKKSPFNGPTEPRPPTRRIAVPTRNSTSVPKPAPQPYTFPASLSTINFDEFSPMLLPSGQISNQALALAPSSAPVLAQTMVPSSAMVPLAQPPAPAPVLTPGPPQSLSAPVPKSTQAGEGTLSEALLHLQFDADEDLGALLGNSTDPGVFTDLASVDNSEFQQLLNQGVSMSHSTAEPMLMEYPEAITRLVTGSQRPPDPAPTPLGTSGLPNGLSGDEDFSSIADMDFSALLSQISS
UniProt P63208: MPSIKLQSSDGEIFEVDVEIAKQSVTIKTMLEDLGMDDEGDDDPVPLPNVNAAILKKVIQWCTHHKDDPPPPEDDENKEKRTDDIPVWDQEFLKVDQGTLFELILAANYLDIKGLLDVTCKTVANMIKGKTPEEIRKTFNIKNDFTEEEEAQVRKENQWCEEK

What was measured:
c-Myc-tagged PDLIM2 = target: T1, c-Myc-tagged PDLIM2 (UniProt Q8R1G6); assay: co-IP; HEK293T transfected with the c-Myc-tagged bait (and Flag-tagged partner where given); whole cell extract in RIPA buffer; IP with anti-c-Myc agarose overnight, four washes; immunoblot; in some panels cells were first transfected with control siRNA or siRNA against Cullin 1, Skp1 or Fbxo proteins
T1 sequence: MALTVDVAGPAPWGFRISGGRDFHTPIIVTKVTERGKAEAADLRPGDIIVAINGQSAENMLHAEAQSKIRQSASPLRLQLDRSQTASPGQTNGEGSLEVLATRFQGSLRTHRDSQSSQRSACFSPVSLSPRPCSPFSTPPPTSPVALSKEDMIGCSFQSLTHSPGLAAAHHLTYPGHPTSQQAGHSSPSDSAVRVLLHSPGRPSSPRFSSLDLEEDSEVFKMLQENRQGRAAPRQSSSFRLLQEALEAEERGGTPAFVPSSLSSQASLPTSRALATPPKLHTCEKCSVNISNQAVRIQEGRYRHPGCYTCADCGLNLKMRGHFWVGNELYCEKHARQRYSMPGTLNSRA

[1] = target: T2, Flag-tagged PDLIM2 (mouse) (UniProt Q8R1G6); assay: co-IP; HEK293T transfected with Flag-PDLIM2; lysis in 50 mM Tris pH 8.0, 0.5% NP-40, 5 mM EDTA, 50 mM NaCl, 50 mM sodium fluoride; IP with anti-Flag; immunoblot with anti-Skp1
T2 sequence: T1 sequence

| Substance | binding (c-Myc-tagged PDLIM2) | binding [1] |
| --- | --- | --- |
| Flag-tagged STAT3 (from UniProt P42227 1-770) | binds | – |
| Flag-tagged p65 (from UniProt Q04207 1-549) | binds | – |
| Skp1 (from UniProt P63208 1-163) | – | binds |
